In the supplement of paper PMC10849652:
The list shows a part of the results.

The chains behind the UniProt entries cited, without tags or fusion partners. Where a name states a change or a piece, a line headed by the entry shows the natural chain unless it says otherwise.
UniProt P60174, whole entry, looked up: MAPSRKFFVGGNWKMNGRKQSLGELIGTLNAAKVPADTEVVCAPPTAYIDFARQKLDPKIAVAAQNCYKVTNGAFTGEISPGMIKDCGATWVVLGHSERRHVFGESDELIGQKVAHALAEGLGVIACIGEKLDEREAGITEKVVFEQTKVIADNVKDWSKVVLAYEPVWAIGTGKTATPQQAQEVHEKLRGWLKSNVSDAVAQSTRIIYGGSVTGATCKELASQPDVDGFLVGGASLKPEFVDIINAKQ
UniProt Q5JTV8: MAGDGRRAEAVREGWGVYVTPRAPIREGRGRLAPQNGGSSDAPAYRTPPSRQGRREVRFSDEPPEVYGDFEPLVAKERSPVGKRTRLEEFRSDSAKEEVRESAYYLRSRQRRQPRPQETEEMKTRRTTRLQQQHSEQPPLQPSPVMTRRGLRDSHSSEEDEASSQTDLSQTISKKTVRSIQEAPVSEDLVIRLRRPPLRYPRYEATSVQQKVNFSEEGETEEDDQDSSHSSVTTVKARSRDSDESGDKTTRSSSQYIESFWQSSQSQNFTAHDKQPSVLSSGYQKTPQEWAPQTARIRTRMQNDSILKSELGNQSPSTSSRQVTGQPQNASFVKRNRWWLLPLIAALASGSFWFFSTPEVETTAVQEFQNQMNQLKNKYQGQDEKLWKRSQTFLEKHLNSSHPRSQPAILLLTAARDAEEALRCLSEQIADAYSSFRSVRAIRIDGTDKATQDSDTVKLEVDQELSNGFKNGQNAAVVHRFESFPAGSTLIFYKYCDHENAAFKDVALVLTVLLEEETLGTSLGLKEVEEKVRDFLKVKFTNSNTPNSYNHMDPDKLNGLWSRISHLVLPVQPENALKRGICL
UniProt Q8NFQ8: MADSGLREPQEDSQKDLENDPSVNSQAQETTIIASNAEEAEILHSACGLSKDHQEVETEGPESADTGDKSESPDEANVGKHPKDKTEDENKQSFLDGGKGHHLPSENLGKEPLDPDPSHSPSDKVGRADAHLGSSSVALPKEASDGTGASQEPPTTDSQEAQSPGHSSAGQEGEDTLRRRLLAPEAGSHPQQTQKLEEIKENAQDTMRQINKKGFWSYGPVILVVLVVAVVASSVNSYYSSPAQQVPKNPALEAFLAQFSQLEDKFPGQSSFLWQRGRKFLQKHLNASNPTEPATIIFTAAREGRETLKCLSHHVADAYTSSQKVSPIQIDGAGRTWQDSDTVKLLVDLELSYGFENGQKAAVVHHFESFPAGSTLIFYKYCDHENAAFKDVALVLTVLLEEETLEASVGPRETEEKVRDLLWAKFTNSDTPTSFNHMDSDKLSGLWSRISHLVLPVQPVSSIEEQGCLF
UniProt Q12888: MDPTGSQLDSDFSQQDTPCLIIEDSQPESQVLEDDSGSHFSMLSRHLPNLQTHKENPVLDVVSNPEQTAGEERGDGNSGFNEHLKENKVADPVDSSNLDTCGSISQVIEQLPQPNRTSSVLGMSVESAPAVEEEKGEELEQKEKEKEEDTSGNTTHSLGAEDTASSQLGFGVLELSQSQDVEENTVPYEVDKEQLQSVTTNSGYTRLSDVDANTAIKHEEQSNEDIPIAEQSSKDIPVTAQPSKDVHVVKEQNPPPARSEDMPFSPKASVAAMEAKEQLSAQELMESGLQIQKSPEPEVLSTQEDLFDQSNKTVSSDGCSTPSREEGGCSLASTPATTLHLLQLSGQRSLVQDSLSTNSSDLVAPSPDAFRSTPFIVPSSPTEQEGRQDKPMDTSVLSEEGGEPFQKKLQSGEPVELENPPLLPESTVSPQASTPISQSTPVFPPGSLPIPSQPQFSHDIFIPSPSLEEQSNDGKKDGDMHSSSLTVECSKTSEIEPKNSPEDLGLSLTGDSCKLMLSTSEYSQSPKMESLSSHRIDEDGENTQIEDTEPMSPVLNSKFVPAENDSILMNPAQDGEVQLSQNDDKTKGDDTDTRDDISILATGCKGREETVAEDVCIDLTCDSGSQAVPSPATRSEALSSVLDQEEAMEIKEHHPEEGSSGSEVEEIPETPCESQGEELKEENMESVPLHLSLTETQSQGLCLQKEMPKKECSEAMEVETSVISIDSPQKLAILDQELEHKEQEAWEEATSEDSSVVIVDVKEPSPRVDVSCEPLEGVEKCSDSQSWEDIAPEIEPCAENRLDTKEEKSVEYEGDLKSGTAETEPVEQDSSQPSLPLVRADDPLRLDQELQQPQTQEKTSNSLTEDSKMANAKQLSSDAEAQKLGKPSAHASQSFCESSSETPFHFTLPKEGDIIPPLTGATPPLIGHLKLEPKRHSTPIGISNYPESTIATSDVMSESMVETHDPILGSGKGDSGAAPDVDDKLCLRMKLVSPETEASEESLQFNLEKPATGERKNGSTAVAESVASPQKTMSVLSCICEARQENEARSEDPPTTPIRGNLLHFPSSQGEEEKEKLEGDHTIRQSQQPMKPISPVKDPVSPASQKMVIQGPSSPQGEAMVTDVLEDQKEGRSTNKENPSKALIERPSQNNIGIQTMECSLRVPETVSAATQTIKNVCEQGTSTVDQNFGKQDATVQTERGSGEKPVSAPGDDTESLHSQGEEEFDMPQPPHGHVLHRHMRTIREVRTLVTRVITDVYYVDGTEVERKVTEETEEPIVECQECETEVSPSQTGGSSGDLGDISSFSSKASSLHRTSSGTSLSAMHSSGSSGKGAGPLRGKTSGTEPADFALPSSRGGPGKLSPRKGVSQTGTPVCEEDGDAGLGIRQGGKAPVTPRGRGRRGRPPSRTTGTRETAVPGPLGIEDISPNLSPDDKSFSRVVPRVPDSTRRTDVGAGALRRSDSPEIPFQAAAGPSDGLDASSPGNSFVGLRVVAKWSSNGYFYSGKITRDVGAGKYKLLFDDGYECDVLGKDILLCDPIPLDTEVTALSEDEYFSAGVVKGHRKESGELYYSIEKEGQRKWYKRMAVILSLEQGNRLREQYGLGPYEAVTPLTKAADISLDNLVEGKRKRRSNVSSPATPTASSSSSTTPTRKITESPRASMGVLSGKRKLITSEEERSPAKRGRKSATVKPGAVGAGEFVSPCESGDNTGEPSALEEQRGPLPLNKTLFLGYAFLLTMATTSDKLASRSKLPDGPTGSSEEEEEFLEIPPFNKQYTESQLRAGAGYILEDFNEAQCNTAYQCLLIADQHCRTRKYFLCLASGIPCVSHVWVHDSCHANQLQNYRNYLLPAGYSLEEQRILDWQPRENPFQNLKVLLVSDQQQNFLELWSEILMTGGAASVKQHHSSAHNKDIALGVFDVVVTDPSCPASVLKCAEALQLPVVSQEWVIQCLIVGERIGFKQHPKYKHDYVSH
UniProt O94842: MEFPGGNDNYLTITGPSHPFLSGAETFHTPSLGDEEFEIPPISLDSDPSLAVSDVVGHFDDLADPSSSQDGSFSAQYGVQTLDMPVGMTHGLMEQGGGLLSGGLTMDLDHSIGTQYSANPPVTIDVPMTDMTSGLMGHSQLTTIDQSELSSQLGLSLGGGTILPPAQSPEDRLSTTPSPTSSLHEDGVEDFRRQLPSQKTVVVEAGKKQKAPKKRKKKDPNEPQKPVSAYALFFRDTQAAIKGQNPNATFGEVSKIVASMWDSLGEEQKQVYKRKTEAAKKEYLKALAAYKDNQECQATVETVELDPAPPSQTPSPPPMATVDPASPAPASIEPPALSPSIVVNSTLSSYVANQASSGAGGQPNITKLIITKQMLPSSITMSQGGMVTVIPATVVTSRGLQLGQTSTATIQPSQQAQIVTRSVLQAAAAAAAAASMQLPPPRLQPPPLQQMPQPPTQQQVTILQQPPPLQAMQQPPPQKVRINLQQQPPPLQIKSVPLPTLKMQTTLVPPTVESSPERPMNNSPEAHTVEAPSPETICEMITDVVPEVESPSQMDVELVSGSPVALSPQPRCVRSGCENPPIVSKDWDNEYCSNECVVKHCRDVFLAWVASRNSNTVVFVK
UniProt Q8N511: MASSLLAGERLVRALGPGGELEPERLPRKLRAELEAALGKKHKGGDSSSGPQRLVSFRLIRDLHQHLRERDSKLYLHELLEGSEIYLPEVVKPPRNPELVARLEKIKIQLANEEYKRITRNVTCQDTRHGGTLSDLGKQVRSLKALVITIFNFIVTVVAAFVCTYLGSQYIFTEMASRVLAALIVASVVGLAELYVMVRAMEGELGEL
UniProt Q13472: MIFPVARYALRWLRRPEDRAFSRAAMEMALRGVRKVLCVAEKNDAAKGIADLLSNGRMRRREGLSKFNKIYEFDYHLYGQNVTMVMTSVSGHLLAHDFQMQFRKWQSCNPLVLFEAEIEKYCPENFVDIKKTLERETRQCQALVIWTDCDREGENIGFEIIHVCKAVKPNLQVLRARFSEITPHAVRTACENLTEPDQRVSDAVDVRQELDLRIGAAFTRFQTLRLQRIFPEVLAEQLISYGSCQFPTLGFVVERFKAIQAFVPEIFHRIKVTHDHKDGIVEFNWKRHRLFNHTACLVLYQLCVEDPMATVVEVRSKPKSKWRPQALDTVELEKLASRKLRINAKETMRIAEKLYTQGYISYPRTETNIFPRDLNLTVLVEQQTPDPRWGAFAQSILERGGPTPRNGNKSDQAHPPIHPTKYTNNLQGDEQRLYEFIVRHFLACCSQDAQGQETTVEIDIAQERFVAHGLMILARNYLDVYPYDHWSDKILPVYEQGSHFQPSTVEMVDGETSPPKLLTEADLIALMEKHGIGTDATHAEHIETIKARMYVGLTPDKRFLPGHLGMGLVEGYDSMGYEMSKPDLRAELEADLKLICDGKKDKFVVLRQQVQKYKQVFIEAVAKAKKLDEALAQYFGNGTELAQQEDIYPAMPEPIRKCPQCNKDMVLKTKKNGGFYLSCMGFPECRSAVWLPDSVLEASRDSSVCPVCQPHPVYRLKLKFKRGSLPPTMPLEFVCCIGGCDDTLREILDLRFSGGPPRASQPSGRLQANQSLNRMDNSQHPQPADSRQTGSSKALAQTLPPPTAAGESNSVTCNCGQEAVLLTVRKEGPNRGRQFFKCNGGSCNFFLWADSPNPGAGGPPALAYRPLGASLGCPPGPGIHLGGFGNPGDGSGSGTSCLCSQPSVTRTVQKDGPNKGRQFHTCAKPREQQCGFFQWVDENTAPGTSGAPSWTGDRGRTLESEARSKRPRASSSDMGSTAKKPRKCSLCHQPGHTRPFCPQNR
UniProt Q9ULW0, whole entry, looked up: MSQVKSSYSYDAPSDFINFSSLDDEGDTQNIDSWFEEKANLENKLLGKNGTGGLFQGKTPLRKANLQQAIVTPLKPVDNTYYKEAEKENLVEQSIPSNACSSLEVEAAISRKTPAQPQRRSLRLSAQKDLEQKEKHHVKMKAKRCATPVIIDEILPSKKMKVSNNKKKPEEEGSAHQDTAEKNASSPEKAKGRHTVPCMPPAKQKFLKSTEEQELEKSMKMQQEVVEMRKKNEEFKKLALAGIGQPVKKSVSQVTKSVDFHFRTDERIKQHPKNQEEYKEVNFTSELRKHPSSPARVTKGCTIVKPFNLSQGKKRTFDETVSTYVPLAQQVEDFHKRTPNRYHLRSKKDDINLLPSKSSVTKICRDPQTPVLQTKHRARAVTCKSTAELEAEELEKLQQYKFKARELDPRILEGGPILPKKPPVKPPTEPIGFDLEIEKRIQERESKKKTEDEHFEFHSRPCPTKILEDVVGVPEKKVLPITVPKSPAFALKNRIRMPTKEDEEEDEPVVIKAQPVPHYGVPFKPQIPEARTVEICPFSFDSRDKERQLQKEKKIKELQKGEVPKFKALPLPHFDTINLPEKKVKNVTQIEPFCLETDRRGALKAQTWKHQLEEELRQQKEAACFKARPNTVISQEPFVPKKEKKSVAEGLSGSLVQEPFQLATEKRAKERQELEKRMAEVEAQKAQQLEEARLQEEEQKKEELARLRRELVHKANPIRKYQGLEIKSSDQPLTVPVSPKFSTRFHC
UniProt P20333, whole entry, looked up: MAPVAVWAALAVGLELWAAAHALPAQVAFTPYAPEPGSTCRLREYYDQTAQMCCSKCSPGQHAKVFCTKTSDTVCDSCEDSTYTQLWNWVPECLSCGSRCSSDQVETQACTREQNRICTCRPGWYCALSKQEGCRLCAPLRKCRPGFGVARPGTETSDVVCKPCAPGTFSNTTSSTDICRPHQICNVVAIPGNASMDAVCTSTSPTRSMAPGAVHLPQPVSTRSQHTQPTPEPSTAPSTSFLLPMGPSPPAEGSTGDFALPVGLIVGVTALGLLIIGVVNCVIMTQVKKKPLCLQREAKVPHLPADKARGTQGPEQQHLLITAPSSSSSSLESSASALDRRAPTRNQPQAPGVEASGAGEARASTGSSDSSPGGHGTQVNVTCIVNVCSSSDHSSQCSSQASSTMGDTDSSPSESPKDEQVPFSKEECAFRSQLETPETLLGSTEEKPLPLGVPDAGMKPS
UniProt O95379: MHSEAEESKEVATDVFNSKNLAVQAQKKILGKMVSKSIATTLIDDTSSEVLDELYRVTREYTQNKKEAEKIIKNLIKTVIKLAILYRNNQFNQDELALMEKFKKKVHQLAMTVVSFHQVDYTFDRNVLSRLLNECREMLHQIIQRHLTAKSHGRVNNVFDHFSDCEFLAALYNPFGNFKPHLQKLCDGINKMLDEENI

compound: C1CCN(C1)C(=O)NC2=CC=CC(=C2)NC3=NC=C(C(=N3)NCCC4=CN=CN4)Br; test: log2 fold change, soluble protein after heating vs DMSO (PISA); higher = thermal stabilisation; K562 lysate, 10 uM; active = over 0.2 and 3.5 SD of the protein, either way, in both replicates (recomputed)
How it was run: (§1)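 Quantification was by TMTpro 16plex LC-MS/MS with equalised channel sums, applied to the supernatant after 21,000xg for 90 min. Samples were crude K562 extract at 1 mg/mL protein in PBS pH 7.4 with 1 mM MgCl2, treated with 10 μM compound for 30 min, heated for 3 min across 48°C-58°C, pooled and brought to 0.5% NP-40 at 4°C. Values are log-two fold changes in thermal stability relative to solvent controls, from duplicates.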

log2 fold change, inactive:
TPI1 (UniProt P60174) -0.024
TMOD3 (UniProt Q9NYL9) -0.001
TOR1AIP1 isoform 3 (UniProt Q5JTV8) -0.002
TNPO1 (UniProt Q92973) -0.015
TPP2 (UniProt P29144) -0.003
TOR1AIP2 (UniProt Q8NFQ8) -0.01
TP53BP1 isoform 2 (UniProt Q12888) 0.006
TP53BP2 isoform 3 (UniProt Q13625) -0.039
TMEM245 (UniProt Q9H330) -0.03
TPM1 isoform 4 (UniProt P09493) 0.014
TPM4 (UniProt P67936) -0.064
TMTC3 (UniProt Q6ZXV5) 0.042
TOP2B isoform 2 (UniProt Q02880) 0.029
TOP1 (UniProt P11387) 0.025
TOX4 (UniProt O94842) -0.014
TNFRSF8 (UniProt P28908) -0.043
TMEM63A (UniProt O94886) -0.057
TPP2 (UniProt Q5VZU9) 0
TMEM199 (UniProt Q8N511) -0.065
TPD52L2 isoform 7 (UniProt O43399) 0.029
TOP2A isoform 4 (UniProt P11388) 0.003
TOP3A (UniProt Q13472) -0.098
TMEM219 (UniProt Q86XT9) 0.101
TMEM9B (UniProt Q9NQ34) -0.048
TMX3 (UniProt Q96JJ7) 0.014
TPR (UniProt P12270) 0.006
TMEM192 (UniProt Q8IY95) 0.082
TPX2 (UniProt Q9ULW0) -0.005
TNFRSF1B (UniProt P20333) 0.037
TPP1 (UniProt O14773) 0.007
TP53I3 (UniProt Q53FA7) 0.053
TMEM43 (UniProt Q9BTV4) -0.001
TNFAIP8 isoform 4 (UniProt O95379) -0.008

compound: C1CN(CCC1(CC2=CC=C(C=C2)Cl)N)C3=NC=NC4=C3C=CN4; test: as above
How it was run: as §1

log2 fold change, inactive:
TPI1 (UniProt P60174) 0.002
TMOD3 (UniProt Q9NYL9) -0.033
TOR1AIP1 isoform 3 (UniProt Q5JTV8) 0.037
TNPO1 (UniProt Q92973) 0.024
TPP2 (UniProt P29144) -0.005
TOR1AIP2 (UniProt Q8NFQ8) 0.061
TP53BP1 isoform 2 (UniProt Q12888) 0.001
TP53BP2 isoform 3 (UniProt Q13625) 0.039
TMEM245 (UniProt Q9H330) -0.038
TPM1 isoform 4 (UniProt P09493) -0.052
TPM4 (UniProt P67936) -0.012
TMTC3 (UniProt Q6ZXV5) 0.003
TOP2B isoform 2 (UniProt Q02880) -0.012
TOP1 (UniProt P11387) 0.014
TOX4 (UniProt O94842) 0.053
TNFRSF8 (UniProt P28908) 0.038
TMEM63A (UniProt O94886) 0.003
TPP2 (UniProt Q5VZU9) 0.066
TMEM199 (UniProt Q8N511) 0.027
TPD52L2 isoform 7 (UniProt O43399) -0.004
TOP2A isoform 4 (UniProt P11388) -0.018
TOP3A (UniProt Q13472) 0.206
TMEM219 (UniProt Q86XT9) 0.083
TMEM9B (UniProt Q9NQ34) 0
TMX3 (UniProt Q96JJ7) 0.048
TPR (UniProt P12270) 0.003
TMEM192 (UniProt Q8IY95) -0.012
TPX2 (UniProt Q9ULW0) -0.026
TNFRSF1B (UniProt P20333) 0.12
TPP1 (UniProt O14773) 0.025
TP53I3 (UniProt Q53FA7) 0.039
TMEM43 (UniProt Q9BTV4) 0.015
TNFAIP8 isoform 4 (UniProt O95379) 0.017

compound: C1COCCN1CCN2C3=CC=CC=C3N=C2NC(=O)C4=CC(=CC=C4)[N+](=O)[O-] [IRAK-1-4 Inhibitor I]; test: as above
How it was run: as §1

log2 fold change, inactive:
TPI1 (UniProt P60174) 0.049
TMOD3 (UniProt Q9NYL9) 0.007
TOR1AIP1 isoform 3 (UniProt Q5JTV8) 0.021
TNPO1 (UniProt Q92973) 0.021
TPP2 (UniProt P29144) -0.002
TOR1AIP2 (UniProt Q8NFQ8) -0.005
TP53BP1 isoform 2 (UniProt Q12888) 0.012
TP53BP2 isoform 3 (UniProt Q13625) 0.02
TMEM245 (UniProt Q9H330) 0.058
TPM1 isoform 4 (UniProt P09493) -0.009
TPM4 (UniProt P67936) 0.028
TMTC3 (UniProt Q6ZXV5) 0.055
TOP2B isoform 2 (UniProt Q02880) 0.014
TOP1 (UniProt P11387) -0.023
TOX4 (UniProt O94842) -0.025
TNFRSF8 (UniProt P28908) -0.004
TMEM63A (UniProt O94886) -0.005
TPP2 (UniProt Q5VZU9) 0.005
TMEM199 (UniProt Q8N511) -0.033
TPD52L2 isoform 7 (UniProt O43399) -0.031
TOP2A isoform 4 (UniProt P11388) -0.033
TOP3A (UniProt Q13472) -0.002
TMEM219 (UniProt Q86XT9) 0.008
TMEM9B (UniProt Q9NQ34) 0.103
TMX3 (UniProt Q96JJ7) 0.003
TPR (UniProt P12270) -0.011
TMEM192 (UniProt Q8IY95) 0.026
TPX2 (UniProt Q9ULW0) 0.006
TNFRSF1B (UniProt P20333) 0.001
TPP1 (UniProt O14773) 0.021
TP53I3 (UniProt Q53FA7) -0.019
TMEM43 (UniProt Q9BTV4) 0.028
TNFAIP8 isoform 4 (UniProt O95379) -0.025
